The other results are listed elsewhere or left out. Residues, ends and D or L forms follow the SMILES beside them. *: point of attachment. Cbz = O=C(OCc1ccccc1)*
How the values were obtained:
Assay in all cases: log2 fold change, soluble protein after heating vs DMSO (PISA); higher = thermal stabilisation; K562 cells, 10 uM, 30 min; active = over 0.2 and 3.5 SD of the protein, either way, in both replicates (recomputed)
erlotinib = compound: C#Cc1cccc(Nc2ncnc3cc(OCCOC)c(OCCOC)cc23)c1 [erlotinib]
Method in brief: (§1)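 Values are thermal stability changes relative to control samples and are taken from duplicates. They are stated as log2 fold changes. Before quantification by TMTpro 16plex LC-MS/MS with equalised channel sums, K562 cells at 2×10^6 cells/mL were treated with 10 μM compound for 30 min, heated in aliquots for 3 min across 48°C-58°C, pooled, extracted in PBS with 0.5% NP-40 at 4°C, and centrifuged at 21,000xg for 90 min to give the soluble supernatant.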

Amino acid sequences for entries named in this document (tags omitted). A change or cut given only in a name is not applied to a line headed by its entry.
UniProt Q9UBF6, whole entry, looked up: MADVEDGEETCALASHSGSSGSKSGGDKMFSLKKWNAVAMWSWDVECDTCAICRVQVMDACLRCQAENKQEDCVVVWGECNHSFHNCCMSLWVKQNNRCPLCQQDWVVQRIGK
UniProt Q9P2E9: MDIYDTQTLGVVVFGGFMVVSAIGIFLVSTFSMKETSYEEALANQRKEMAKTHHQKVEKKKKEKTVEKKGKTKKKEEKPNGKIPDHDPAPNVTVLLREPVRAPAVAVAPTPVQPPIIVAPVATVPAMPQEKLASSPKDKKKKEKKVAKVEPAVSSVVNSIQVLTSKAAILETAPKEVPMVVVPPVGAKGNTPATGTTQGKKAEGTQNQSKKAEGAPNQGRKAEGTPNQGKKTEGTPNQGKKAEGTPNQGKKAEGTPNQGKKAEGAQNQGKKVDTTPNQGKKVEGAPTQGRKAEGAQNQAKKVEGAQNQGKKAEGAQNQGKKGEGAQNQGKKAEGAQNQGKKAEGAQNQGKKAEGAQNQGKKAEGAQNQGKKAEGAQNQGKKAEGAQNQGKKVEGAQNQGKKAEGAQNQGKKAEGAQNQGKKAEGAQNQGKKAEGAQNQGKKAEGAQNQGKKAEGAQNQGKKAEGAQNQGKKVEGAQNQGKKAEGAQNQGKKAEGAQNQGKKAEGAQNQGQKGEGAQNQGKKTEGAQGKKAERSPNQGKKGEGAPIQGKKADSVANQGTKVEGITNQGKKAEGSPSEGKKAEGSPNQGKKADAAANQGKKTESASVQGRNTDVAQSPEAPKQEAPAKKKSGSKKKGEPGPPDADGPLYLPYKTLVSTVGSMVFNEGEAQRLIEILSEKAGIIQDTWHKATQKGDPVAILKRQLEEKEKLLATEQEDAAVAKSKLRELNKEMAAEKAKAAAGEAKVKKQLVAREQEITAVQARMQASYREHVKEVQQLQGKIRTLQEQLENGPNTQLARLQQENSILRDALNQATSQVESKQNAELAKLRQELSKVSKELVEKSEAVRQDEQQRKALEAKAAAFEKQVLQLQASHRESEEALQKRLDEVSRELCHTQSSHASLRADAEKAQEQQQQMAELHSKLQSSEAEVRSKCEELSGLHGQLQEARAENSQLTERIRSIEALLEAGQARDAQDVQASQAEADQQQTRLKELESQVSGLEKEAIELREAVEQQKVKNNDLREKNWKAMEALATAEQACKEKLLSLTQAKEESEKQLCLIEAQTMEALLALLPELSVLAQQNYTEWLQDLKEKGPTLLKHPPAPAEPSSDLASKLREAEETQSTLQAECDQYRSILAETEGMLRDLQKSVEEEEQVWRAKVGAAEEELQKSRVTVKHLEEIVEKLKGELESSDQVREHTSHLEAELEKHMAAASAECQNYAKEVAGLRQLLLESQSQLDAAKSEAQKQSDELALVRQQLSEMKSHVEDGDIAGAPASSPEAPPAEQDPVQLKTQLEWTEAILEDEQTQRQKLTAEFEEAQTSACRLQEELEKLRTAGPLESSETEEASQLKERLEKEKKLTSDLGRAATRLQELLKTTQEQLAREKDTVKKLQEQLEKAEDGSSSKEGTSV
UniProt P04844: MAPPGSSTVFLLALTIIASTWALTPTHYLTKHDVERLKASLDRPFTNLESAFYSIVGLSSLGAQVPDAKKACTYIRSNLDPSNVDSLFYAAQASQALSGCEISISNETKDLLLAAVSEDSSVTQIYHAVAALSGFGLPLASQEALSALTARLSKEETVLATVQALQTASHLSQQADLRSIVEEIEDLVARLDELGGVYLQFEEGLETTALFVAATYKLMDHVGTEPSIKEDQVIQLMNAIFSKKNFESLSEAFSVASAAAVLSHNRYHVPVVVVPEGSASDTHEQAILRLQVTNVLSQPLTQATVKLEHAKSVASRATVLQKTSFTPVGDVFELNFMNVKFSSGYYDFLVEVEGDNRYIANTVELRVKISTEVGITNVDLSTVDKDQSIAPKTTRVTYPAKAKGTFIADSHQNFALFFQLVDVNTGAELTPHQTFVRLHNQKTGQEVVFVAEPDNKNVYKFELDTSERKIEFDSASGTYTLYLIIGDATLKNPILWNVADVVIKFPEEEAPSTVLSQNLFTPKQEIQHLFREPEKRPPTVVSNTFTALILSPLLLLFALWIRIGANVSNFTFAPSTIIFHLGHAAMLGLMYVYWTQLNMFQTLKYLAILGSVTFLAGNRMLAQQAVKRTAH
UniProt Q7L523, whole entry, looked up: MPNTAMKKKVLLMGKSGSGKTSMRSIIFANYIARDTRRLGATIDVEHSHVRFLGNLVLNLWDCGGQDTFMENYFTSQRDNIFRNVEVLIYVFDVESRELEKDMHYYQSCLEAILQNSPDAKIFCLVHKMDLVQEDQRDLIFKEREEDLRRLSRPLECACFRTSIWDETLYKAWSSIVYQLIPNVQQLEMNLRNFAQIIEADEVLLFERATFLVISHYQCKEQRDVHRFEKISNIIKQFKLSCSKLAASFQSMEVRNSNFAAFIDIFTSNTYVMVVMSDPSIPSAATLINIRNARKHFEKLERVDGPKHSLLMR
UniProt Q96BH1: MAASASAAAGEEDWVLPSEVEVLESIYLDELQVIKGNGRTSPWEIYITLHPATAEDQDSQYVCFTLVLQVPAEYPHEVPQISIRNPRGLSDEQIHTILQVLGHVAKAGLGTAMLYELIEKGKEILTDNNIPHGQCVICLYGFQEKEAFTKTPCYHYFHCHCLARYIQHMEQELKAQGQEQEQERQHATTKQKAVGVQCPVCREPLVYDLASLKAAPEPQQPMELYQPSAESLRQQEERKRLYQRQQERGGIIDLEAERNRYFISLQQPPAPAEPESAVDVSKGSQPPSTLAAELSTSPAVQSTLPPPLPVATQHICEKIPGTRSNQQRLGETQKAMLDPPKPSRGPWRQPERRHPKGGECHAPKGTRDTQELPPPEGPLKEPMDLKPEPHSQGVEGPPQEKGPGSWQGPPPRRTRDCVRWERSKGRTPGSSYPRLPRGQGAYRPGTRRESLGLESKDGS

[1] = compound: C/C(=N\NC(=O)C1=CC(=CC=C1)S(=O)(=O)N2CCOCC2)/C3=C(C=CC(=C3)Cl)O
Method in brief: as §1

[2] = compound: C1=CC(=C(C=C1Cl)C2=NC3=NC=CN=C3C(=N2)NC4=CC=NC=C4)F
Method in brief: as §1

[3] = compound: C1=CC(=CC=C1C2=NC3=C(N2)C=C(C=C3)C(=O)N)OC4=CC=C(C=C4)Cl
Method in brief: as §1

[4] = compound: C1=CC2=C(C=CC(=C2)/C=C\3/C(=O)NC(=NCC4=CC=CS4)S3)N=C1
Method in brief: as §1

[5] = compound: C1=CC2=NC=CN=C2C=C1/C=C/3\C(=O)NC(=O)S3
Method in brief: as §1

[6] = compound: C1=CC=C(C=C1)C2=NC(=C(N2)C3=CC=NC=C3)C4=CC(=C(C=C4)Cl)O
Method in brief: as §1

[7] = compound: C1=CC=C2C(=C1)C3=NNC4=CC=CC(=C43)C2=O
Method in brief: as §1

[8] = compound: C1CCN(C1)C(=O)NC2=CC=CC(=C2)NC3=NC=C(C(=N3)NCCC4=CN=CN4)Br
Method in brief: as §1

[9] = compound: C1CN(CCC1(CC2=CC=C(C=C2)Cl)N)C3=NC=NC4=C3C=CN4
Method in brief: as §1

IRAK-1-4 Inhibitor I = compound: C1COCCN1CCN2C3=CC=CC=C3N=C2NC(=O)C4=CC(=CC=C4)[N+](=O)[O-] [IRAK-1-4 Inhibitor I]
Method in brief: as §1

ibrutinib = compound: C=CC(=O)N1CCC[C@@H](n2nc(-c3ccc(Oc4ccccc4)cc3)c3c(N)ncnc32)C1 [ibrutinib]
Method in brief: as §1

[10] = compound: CC(=O)c1cnc2ccc(-c3cc(Cl)c(O)c(Cl)c3)nc2c1N[C@H]1CC[C@H](CN(C)C)CC1
Method in brief: as §1

ralimetinib = compound: CC(C)(C)Cn1c(N)nc2ccc(-c3[nH]c(C(C)(C)C)nc3-c3ccc(F)cc3)nc21 [ralimetinib]
Method in brief: as §1

[11] = compound: CC(C)(O)CC(=O)NCCn1ccc2ncnc(Nc3ccc(Oc4cccc(C(F)(F)F)c4)c(Cl)c3)c21
Method in brief: as §1

[12] = compound: CC(C)C1=C2N=C(C=C(N2N=C1)NCC3=CC=CC=C3)NCCCCCCN
Method in brief: as §1

[13] = compound: CC(C)C[C@@H](C=O)NC(=O)[C@H](CC(C)C)NC(=O)[C@H](CC(C)C)NC(=O)OCc1ccccc1
Method in brief: as §1

pinometostat = compound: CC(C)N(C[C@H]1O[C@@H](n2cnc3c(N)ncnc32)[C@H](O)[C@@H]1O)[C@H]1C[C@@H](CCc2nc3cc(C(C)(C)C)ccc3[nH]2)C1 [pinometostat]
Method in brief: as §1

[14] = compound: CC1=C(C(CC(=O)N1)C2=CC=C(C=C2)C(F)(F)F)C(=O)NC3=C(C=C4C(=C3)C=NN4)F
Method in brief: as §1

[15] = compound: CC1=C(C2=C(C=C1)C(=O)C3=CC=CC=C3N2CCCN)C
Method in brief: as §1

Measured: log2 fold change

RPS27L (UniProt Q71UM5)
inactive: erlotinib -0.12 | [1] -0.002 | [2] -0.14 | [3] 0.059 | [4] -0.039 | [5] -0.062 | [6] 0.086 | [7] -0.053 | [8] 0.054 | [9] -0.146 | IRAK-1-4 Inhibitor I -0.051 | ibrutinib 0.026 | [10] 0.039 | ralimetinib 0.11 | [11] -0.026 | [12] -0.087 | [13] 0.094 | pinometostat 0.098 | [14] -0.026 | [15] -0.122

RPS27 (UniProt P42677)
inactive: erlotinib -0.235 | [1] -0.049 | [2] -0.186 | [3] 0.182 | [4] 0.073 | [5] -0.042 | [6] -0.02 | [7] -0.053 | [8] 0.116 | [9] -0.229 | IRAK-1-4 Inhibitor I -0.049 | ibrutinib -0.021 | [10] 0.012 | ralimetinib 0.037 | [11] -0.026 | [12] -0.505 | [13] 0.094 | pinometostat 0.168 | [14] -0.009 | [15] -0.142

RPS29 (UniProt P62273)
inactive: erlotinib -0.034 | [1] -0.161 | [2] -0.011 | [3] 0.111 | [4] -0.178 | [5] -0.101 | [6] -0.059 | [7] 0.083 | [8] 0.135 | [9] -0.181 | IRAK-1-4 Inhibitor I -0.116 | ibrutinib 0.078 | [10] 0.191 | ralimetinib 0.546 | [11] -0.008 | [12] 0.061 | [13] 0.578 | pinometostat 0.188 | [14] 0.367 | [15] -0.625

RPS15A (UniProt P62244)
inactive: erlotinib -0.174 | [1] -0.063 | [2] -0.538 | [3] 0.039 | [4] -0.115 | [5] -0.055 | [6] -0.055 | [7] 0.044 | [8] 0.075 | [9] -0.198 | IRAK-1-4 Inhibitor I -0.122 | ibrutinib 0.02 | [10] 0.181 | ralimetinib 0.109 | [11] 0.012 | [12] -0.058 | [13] 0.109 | pinometostat 0.38 | [14] 0.057 | [15] -0.555

RNF7 (UniProt Q9UBF6)
inactive: erlotinib -0.001 | [1] 0.1 | [2] -0.046 | [3] -0.031 | [4] 0.019 | [5] 0.056 | [6] 0.034 | [7] -0.095 | [8] 0.022 | [9] 0.069 | IRAK-1-4 Inhibitor I 0.092 | ibrutinib 0.039 | [10] 0.018 | ralimetinib -0.007 | [11] -0.031 | [12] 0.239 | [13] -0.028 | pinometostat -0.077 | [14] 0.118 | [15] 0.053

RRBP1 (UniProt Q9P2E9)
inactive: erlotinib 0.01 | [1] -0.178 | [2] -0.678 | [3] 0.109 | [4] -0.133 | [5] 0.054 | [6] -0.09 | [7] 0 | [8] 0.131 | [9] -0.048 | IRAK-1-4 Inhibitor I -0.094 | ibrutinib 0.034 | [10] 0.188 | ralimetinib 0.226 | [11] 0.191 | [12] -0.064 | [13] 0.212 | pinometostat 0.388 | [14] 0.079 | [15] -0.519

RPL19 (UniProt P84098)
inactive: erlotinib -0.303 | [1] -0.192 | [2] -0.792 | [3] 0 | [4] -0.208 | [5] -0.084 | [6] -0.12 | [7] 0.016 | [8] 0.016 | [9] -0.264 | IRAK-1-4 Inhibitor I -0.148 | ibrutinib 0.06 | [10] 0.144 | ralimetinib 0.195 | [11] 0.158 | [12] -0.025 | [13] 0.157 | pinometostat 0.344 | [14] 0.068 | [15] -0.704

RPN2 (UniProt P04844)
inactive: erlotinib -0.019 | [1] -0.002 | [2] 0.009 | [3] -0.008 | [4] -0.015 | [5] 0.026 | [6] 0.065 | [7] 0.006 | [8] -0.019 | [9] -0.011 | IRAK-1-4 Inhibitor I -0.04 | ibrutinib -0.022 | [10] 0.027 | ralimetinib 0.023 | [11] 0.007 | [12] -0.09 | [13] -0.043 | pinometostat -0.013 | [14] 0.013 | [15] 0.019

RPL34 (UniProt P49207)
inactive: erlotinib -0.425 | [1] -0.398 | [2] -1.29 | [3] 0.058 | [4] -0.252 | [5] -0.067 | [6] -0.121 | [7] 0.008 | [8] 0.02 | [9] -0.366 | IRAK-1-4 Inhibitor I -0.35 | ibrutinib 0.059 | [10] 0.233 | ralimetinib 0.263 | [11] 0.052 | [12] 0.041 | [13] 0.178 | pinometostat 0.508 | [14] 0.094 | [15] -1.12

RPS8 (UniProt P62241)
inactive: erlotinib -0.164 | [1] -0.152 | [2] -0.526 | [3] 0.063 | [4] -0.138 | [5] -0.039 | [6] 0.023 | [7] -0.008 | [8] 0.063 | [9] -0.182 | IRAK-1-4 Inhibitor I -0.111 | ibrutinib 0.079 | [10] 0.123 | ralimetinib 0.186 | [11] 0.034 | [12] 0 | [13] 0.068 | pinometostat 0.353 | [14] 0.067 | [15] -0.696

RPL27 (UniProt P61353)
inactive: erlotinib -0.444 | [1] -0.234 | [2] -0.953 | [3] 0.039 | [4] -0.305 | [5] -0.012 | [6] 0.086 | [7] 0.084 | [8] -0.006 | [9] -0.311 | IRAK-1-4 Inhibitor I -0.291 | ibrutinib 0.072 | [10] 0.297 | ralimetinib 0.24 | [11] 0.051 | [12] 0 | [13] 0.084 | pinometostat 0.436 | [14] 0.074 | [15] -0.967

RPL14 (UniProt P50914)
inactive: erlotinib -0.436 | [1] -0.354 | [2] -1.15 | [3] 0.08 | [4] -0.18 | [5] -0.041 | [6] -0.028 | [7] 0.053 | [8] -0.1 | [9] -0.532 | IRAK-1-4 Inhibitor I -0.19 | ibrutinib 0.072 | [10] 0.232 | ralimetinib 0.265 | [11] 0.055 | [12] -0.079 | [13] 0.199 | pinometostat 0.468 | [14] 0.129 | [15] -1.04

RRAGA (UniProt Q7L523)
inactive: erlotinib -0.132 | [1] 0.149 | [2] 0.116 | [3] 0.203 | [4] -0.27 | [5] 0.019 | [6] 0.308 | [7] -0.083 | [8] -0.125 | [9] -0.028 | IRAK-1-4 Inhibitor I 0.045 | ibrutinib 0.064 | [10] 0.13 | ralimetinib 0.207 | [11] 0.014 | [12] -0.014 | [13] -0.009 | pinometostat -0.057 | [14] 0.062 | [15] -0.069

RPL30 (UniProt P62888)
inactive: erlotinib -0.407 | [1] -0.32 | [2] -1.08 | [3] 0.087 | [4] -0.168 | [5] -0.047 | [6] -0.112 | [7] 0.069 | [8] 0.006 | [9] -0.394 | IRAK-1-4 Inhibitor I -0.364 | ibrutinib 0.115 | [10] 0.279 | ralimetinib 0.266 | [11] 0.088 | [12] 0.047 | [13] 0.173 | pinometostat 0.5 | [14] 0.123 | [15] -1.06

RNF25 (UniProt Q96BH1)
inactive: erlotinib 0.002 | [1] 0.026 | [2] 0.043 | [3] 0.039 | [4] -0.048 | [5] 0.026 | [6] 0.058 | [7] -0.015 | [8] -0.06 | [9] -0.022 | IRAK-1-4 Inhibitor I 0.047 | ibrutinib 0.011 | [10] -0.024 | ralimetinib 0.028 | [11] -0.039 | [12] -0.033 | [13] -0.013 | pinometostat -0.035 | [14] 0.008 | [15] 0.071

Two records picked at random from those above:
RNF25 (UniProt Q96BH1)
inactive: erlotinib 0.002 | [1] 0.026 | [2] 0.043 | [3] 0.039 | [4] -0.048 | [5] 0.026 | [6] 0.058 | [7] -0.015 | [8] -0.06 | [9] -0.022 | IRAK-1-4 Inhibitor I 0.047 | ibrutinib 0.011 | [10] -0.024 | ralimetinib 0.028 | [11] -0.039 | [12] -0.033 | [13] -0.013 | pinometostat -0.035 | [14] 0.008 | [15] 0.071

RRAGA (UniProt Q7L523)
inactive: erlotinib -0.132 | [1] 0.149 | [2] 0.116 | [3] 0.203 | [4] -0.27 | [5] 0.019 | [6] 0.308 | [7] -0.083 | [8] -0.125 | [9] -0.028 | IRAK-1-4 Inhibitor I 0.045 | ibrutinib 0.064 | [10] 0.13 | ralimetinib 0.207 | [11] 0.014 | [12] -0.014 | [13] -0.009 | pinometostat -0.057 | [14] 0.062 | [15] -0.069
